Earlier results as cited in article PMC11592477, “Bioengineering the Human Intestinal Mucosa and the Importance of Stromal Support for Pharmacological Evaluation In Vitro” (Cells, 2024).

Conditions: hydrophilic drugs; in words; ref [14]; cited from earlier work

CC1=C(C(=O)O)N2C(=O)[C@@H](NC(=O)[C@H](N)c3ccccc3)[C@H]2SC1 [cephalexin]
absorption in vivo: high
